Experimental data from publication PMC7997955.
These are yes or no findings as the source states them, for the method shown.

Sequences of proteins named here, by UniProt entry; tags and fusion partners are left off. A change or cut given only in a name is not applied to a line headed by its entry. A line that says so, or that is headed by a name, gives the form on record, which may keep a tag or linker. Residues count along the entry.
UniProt Q6PGQ7, residues 1-224: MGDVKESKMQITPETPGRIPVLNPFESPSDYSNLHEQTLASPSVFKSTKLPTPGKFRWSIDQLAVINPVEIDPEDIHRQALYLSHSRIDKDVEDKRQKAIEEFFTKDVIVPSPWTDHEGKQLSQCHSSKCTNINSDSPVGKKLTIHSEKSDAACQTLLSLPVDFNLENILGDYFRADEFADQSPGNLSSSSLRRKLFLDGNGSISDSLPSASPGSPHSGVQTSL
Plk1^1–330 KD^WT (kinase domain of Polo-like kinase 1) (P53350, form named): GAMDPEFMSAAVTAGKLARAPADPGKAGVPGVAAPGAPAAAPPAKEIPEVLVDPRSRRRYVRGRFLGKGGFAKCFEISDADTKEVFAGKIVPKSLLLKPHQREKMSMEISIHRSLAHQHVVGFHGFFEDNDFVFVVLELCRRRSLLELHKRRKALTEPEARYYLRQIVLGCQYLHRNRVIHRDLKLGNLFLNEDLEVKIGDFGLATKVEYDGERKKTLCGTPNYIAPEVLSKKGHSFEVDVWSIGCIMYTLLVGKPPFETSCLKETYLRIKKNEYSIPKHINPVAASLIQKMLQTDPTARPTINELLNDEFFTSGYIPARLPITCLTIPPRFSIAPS

Legend:
[1] = biological target: biotinylated AVI-tagged Bora^1–224 (human) (UniProt Q6PGQ7); experiment: pull-down; as a2, but with a mix of AURKA^WT and Plk1 KD^WT added together to biotinylated AVI-Bora^1–224 or AVI-pBora^1–224 on streptavidin sepharose; both purified
[2] = biological target: biotinylated AVI-tagged Bora^1–224 (human) (UniProt Q6PGQ7); experiment: pull-down; 500 ng biotinylated AVI-Bora^1–224, phosphorylated or not by CyclinA2-Cdk2, mixed with AURKA^WT or Plk1 KD^WT (molar ratio 1:1), captured on streptavidin sepharose; on ice; 25 mM Tris pH 7.5, 150 mM NaCl, 20 mM MgCl2, 1 mM DTT, 0.05% Tween 20; immunoblot; both purified

- binding [1]: no binding
- binding [2]: no binding
Substance: Plk1^1–330 KD^WT (kinase domain of Polo-like kinase 1) (from UniProt P53350 1-330) (domain or fragment)
